This note sets out measurements from the supplement of paper PMC10849652.

Protein sequences, listed by entry. Tags and fused reporters are not part of them. Lines headed by an entry give the natural chain unless they say otherwise; changes in a name come on top.
UniProt Q9UIB8: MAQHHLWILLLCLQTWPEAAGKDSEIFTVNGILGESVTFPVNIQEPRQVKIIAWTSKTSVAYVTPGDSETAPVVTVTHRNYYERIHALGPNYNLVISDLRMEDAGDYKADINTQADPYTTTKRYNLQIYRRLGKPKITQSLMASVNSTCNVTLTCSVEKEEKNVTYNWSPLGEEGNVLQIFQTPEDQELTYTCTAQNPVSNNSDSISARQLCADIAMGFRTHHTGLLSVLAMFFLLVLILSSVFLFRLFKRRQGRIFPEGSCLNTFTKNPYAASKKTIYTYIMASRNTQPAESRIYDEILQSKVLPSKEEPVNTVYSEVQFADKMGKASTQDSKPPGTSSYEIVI
UniProt Q9P031: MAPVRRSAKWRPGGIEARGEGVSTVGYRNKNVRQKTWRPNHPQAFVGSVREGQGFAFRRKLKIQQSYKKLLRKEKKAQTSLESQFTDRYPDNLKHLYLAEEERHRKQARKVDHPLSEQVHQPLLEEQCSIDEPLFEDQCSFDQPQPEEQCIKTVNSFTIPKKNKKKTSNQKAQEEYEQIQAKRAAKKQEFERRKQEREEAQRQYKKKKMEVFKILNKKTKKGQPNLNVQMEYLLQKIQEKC
UniProt P86791: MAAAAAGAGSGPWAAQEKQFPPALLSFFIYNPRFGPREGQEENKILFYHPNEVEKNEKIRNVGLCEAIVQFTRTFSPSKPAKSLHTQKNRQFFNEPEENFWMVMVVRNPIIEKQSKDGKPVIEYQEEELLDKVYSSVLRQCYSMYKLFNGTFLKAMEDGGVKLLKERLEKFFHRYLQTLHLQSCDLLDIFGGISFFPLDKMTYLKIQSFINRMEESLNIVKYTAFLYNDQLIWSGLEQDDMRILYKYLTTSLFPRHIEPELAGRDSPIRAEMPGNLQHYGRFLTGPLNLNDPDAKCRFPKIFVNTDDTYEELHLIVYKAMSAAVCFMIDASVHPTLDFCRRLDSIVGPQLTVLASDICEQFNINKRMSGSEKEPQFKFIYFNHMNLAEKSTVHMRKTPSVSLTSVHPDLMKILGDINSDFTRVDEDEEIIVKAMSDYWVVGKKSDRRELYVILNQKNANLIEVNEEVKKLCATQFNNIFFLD
UniProt P19397: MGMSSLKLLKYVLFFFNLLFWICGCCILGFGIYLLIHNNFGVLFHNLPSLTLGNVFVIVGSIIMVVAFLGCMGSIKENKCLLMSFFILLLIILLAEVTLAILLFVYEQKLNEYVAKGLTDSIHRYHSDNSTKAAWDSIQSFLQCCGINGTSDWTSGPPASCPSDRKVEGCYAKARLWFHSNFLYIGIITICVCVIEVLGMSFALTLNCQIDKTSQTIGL
UniProt P48509: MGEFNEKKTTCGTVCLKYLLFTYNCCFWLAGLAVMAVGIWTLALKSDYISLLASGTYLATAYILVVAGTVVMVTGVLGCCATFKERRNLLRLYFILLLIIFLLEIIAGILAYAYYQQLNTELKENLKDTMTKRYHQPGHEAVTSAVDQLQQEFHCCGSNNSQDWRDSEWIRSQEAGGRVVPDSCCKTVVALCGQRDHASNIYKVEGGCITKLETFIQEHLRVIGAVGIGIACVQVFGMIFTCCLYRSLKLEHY
UniProt Q8N163, whole entry, looked up: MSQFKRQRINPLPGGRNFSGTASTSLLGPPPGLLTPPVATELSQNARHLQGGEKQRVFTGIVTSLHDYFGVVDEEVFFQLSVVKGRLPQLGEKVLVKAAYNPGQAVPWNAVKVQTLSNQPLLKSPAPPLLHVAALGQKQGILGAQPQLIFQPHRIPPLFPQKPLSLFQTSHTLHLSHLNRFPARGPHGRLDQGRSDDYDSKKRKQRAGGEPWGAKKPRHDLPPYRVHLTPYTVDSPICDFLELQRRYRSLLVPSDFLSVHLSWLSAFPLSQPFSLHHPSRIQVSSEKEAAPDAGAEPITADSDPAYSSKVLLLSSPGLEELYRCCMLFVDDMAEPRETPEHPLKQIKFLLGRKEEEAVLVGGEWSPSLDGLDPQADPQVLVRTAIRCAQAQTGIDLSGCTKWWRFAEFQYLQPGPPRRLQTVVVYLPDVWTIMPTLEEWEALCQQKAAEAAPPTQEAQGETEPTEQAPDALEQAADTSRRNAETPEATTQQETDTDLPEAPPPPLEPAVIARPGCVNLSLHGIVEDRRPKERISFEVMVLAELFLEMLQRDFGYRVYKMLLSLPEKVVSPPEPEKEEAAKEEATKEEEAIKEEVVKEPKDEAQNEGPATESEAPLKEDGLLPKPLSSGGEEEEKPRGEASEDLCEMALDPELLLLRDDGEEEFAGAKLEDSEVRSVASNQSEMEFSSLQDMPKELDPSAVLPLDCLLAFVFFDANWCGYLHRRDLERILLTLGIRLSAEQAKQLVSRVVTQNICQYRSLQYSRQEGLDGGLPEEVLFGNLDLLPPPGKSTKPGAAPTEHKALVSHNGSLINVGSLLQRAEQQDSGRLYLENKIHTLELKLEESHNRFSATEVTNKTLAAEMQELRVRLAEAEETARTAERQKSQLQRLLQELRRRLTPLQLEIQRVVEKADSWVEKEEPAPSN
UniProt P08962, whole entry, looked up: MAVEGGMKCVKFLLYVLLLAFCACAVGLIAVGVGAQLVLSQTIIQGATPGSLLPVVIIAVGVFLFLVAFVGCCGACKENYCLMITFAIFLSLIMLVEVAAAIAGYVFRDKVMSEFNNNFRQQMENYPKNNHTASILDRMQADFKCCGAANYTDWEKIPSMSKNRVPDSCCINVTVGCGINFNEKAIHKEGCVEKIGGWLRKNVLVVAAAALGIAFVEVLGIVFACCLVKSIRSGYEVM
UniProt Q9Y3X0: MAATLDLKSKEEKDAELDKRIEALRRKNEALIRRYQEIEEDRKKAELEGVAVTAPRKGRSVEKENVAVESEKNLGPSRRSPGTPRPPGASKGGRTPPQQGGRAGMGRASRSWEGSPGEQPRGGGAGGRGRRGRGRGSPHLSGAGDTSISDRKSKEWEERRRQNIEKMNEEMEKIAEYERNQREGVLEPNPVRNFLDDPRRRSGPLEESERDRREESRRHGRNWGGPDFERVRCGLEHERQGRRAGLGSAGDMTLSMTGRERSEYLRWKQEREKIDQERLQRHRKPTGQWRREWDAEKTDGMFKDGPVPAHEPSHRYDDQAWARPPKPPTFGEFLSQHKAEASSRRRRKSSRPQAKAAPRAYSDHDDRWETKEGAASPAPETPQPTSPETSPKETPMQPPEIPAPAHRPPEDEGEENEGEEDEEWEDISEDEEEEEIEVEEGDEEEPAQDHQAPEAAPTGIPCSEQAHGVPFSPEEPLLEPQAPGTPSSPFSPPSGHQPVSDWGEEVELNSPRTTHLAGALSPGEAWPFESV
UniProt P16070: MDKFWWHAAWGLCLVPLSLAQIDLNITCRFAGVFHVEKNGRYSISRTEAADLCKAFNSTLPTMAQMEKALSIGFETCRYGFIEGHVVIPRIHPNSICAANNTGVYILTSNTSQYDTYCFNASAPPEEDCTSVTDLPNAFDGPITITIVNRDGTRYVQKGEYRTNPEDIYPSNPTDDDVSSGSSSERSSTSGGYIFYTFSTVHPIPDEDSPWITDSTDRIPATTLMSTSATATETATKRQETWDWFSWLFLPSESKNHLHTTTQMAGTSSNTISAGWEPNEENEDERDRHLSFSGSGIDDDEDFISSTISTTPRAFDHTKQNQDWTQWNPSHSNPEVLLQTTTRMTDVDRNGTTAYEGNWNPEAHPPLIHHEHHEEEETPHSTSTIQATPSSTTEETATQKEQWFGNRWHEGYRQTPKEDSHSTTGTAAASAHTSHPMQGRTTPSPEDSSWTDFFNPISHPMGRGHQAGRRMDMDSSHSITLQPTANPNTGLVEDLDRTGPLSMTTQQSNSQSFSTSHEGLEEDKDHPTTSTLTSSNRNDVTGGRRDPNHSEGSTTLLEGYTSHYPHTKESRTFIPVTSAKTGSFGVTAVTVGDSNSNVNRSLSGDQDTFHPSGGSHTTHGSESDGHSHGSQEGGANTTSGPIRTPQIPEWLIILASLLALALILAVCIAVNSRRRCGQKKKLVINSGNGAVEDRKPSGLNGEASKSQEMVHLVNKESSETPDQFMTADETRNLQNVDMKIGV
UniProt P16152: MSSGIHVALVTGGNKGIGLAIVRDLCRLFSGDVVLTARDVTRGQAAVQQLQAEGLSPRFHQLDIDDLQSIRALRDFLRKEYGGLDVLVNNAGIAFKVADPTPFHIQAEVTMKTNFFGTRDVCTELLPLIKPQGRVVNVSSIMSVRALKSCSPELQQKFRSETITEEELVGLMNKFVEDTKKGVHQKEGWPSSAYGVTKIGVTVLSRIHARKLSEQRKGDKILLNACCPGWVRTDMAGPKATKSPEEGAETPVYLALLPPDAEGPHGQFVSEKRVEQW
UniProt P21926: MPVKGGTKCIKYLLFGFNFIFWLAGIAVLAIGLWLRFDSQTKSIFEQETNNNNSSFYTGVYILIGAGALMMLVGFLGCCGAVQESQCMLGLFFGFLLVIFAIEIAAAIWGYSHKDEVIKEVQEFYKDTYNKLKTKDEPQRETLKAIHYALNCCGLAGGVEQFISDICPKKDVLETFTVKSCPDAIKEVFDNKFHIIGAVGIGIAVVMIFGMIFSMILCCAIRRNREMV
UniProt P42575: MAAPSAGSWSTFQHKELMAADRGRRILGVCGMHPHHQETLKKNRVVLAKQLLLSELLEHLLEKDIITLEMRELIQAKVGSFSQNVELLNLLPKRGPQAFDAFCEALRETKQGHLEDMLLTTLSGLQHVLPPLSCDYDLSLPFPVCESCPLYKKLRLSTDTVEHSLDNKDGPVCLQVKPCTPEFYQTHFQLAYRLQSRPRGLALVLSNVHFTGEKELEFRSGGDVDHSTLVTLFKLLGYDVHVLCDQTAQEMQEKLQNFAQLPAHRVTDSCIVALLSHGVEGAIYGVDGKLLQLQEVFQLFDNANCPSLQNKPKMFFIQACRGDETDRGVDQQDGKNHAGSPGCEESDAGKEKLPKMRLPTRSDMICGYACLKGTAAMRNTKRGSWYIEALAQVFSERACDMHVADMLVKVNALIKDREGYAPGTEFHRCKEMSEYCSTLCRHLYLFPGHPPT
UniProt P51636: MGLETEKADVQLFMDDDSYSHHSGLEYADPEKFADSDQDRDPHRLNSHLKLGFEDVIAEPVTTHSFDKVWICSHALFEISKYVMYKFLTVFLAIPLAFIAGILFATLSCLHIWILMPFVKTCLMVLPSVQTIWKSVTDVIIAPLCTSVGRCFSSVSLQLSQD
UniProt P51946: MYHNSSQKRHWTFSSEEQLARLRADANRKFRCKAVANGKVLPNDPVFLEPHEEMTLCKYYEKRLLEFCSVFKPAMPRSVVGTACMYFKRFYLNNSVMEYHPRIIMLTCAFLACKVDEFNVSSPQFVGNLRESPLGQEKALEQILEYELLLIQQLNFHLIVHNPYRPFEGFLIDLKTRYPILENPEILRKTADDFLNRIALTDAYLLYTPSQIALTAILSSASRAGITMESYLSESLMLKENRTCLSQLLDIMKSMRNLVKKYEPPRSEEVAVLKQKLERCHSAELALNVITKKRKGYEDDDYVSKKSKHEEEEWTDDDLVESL
UniProt Q8N7R7: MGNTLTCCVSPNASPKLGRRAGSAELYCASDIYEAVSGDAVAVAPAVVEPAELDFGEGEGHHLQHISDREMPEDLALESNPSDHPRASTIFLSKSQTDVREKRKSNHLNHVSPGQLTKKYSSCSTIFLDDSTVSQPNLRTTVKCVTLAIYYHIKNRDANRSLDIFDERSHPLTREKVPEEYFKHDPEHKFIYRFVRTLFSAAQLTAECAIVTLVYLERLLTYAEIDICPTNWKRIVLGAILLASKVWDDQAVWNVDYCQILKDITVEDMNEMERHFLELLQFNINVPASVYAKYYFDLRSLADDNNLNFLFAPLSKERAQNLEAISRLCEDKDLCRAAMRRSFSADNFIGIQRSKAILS
UniProt O75794: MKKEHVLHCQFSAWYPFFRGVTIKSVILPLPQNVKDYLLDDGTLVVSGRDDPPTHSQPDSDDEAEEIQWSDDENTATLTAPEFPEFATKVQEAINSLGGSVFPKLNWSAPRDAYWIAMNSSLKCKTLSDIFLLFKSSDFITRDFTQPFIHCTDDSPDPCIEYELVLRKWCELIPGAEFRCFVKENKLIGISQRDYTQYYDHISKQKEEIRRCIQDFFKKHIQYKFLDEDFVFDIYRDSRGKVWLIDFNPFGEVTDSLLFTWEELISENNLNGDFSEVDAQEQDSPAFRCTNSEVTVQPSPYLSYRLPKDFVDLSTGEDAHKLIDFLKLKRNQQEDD

This is one part of the list.

Assay in all cases: log2 fold change, soluble protein after heating vs DMSO (PISA); higher = thermal stabilisation; K562 cells, 10 uM, 30 min; active = over 0.2 and 3.5 SD of the protein, either way, in both replicates (recomputed)
Compound in test [1]: CN1CCN(CCOc2cc(OC3CCOCC3)c3c(Nc4c(Cl)ccc5c4OCO5)ncnc3c2)CC1 [saracatinib]
Put shortly:
(§1)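 Values are thermal stability changes relative to control samples and are taken from duplicates. They are stated as log2 fold changes. Before quantification by TMTpro 16plex LC-MS/MS with equalised channel sums, K562 cells at 2×10^6 cells/mL were treated with 10 μM compound for 30 min, heated in aliquots for 3 min across 48°C-58°C, pooled, extracted in PBS with 0.5% NP-40 at 4°C, and centrifuged at 21,000xg for 90 min to give the soluble supernatant.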

Compound in test [2]: CN1CCN(c2nc(C3=C(c4c[nH]c5ccccc45)C(=O)NC3=O)c3ccccc3n2)CC1 [sotrastaurin]
The method, boiled down:
as §1

Compound in test [3]: CN1CCc2c(c3ccccc3n2Cc2ccc(C(=O)NO)cc2)C1 [Tubastatin A]
The method, boiled down: as §1

Compound in test [4]: CNC(=O)C1=CC=CC=C1NC2=NC(=NC=C2Cl)NC3=C(C=C(C=C3)N4CCOCC4)OC
Put shortly:
as §1

Compound in test [5]: CNc1nc(-c2ccc3c(N)n[nH]c3c2)cc(N2C[C@@H](C(=O)NC3CCCCC3)CC[C@H]2C)n1
Put shortly:
as §1

Compound in test [6]: CNC(=O)c1ccc(Nc2ncc(C(F)(F)F)c(NCc3nccnc3N(C)S(C)(=O)=O)n2)cc1 [defactinib]
Put shortly:
as §1

Compound in test [7]: CNCc1ccc(-c2[nH]c3cc(F)cc4c3c2CCNC4=O)cc1 [rucaparib]
The method, boiled down:
as §1

Compound in test [8]: COC(=O)N[C@@H](C)CNc1nccc(-c2cn(C(C)C)nc2-c2cc(Cl)cc(NS(C)(=O)=O)c2F)n1 [encorafenib]
The method, boiled down:
as §1

Compound in test [9]: COC(=O)[C@H](CCSC)NC(=O)C1=C(C=C(C=C1)NC[C@H](CS)N)C2=CC=CC=C2
The method, boiled down: as §1

Compound in test [10]: CN1CC[C@H](c2c(O)cc(O)c3c(=O)cc(-c4ccccc4Cl)oc23)[C@H](O)C1 [alvocidib]
Put shortly: as §1

For CD84 (UniProt Q9UIB8), the log2 fold change is inactive: -0.012 in [1]; inactive: -0.144 in test [2]; inactive: -0.039 in [3]; inactive: -0.119 in test [4]; active: 0.56 in test [5].

CCDC59 (UniProt Q9P031): the log2 fold change in test [1] is inactive: -0.222; in test [2], inactive: 0.023; in test [3] it was inactive: 0.127; in [4], inactive: 0.007; in [6], inactive: 0.309; in test [7], inactive: 0.029. Moreover, the results for the log2 fold change in test [5], in test [8] and in test [9] were inactive: 0.05, inactive: 0.026 and inactive: -0.015, respectively.

Take CCZ1 (UniProt P86791): the log2 fold change was inactive: 0.079 in test [1]; inactive: -0.003 in [2]; inactive: -0.016 in test [3]; inactive: 0.012 in test [4]; inactive: -0.018 in test [6]; inactive: -0.006 in test [7]. The log2 fold change in test [5] was inactive: -0.025; in test [8], inactive: -0.01; in test [9] it was inactive: -0.019.

In the case of CD53 (UniProt P19397), the log2 fold change in [1] was inactive: -0.22; in test [2] it was inactive: 0.087; in test [3], inactive: 0.009; in test [4], inactive: -0.21; in test [6], inactive: -0.069; in test [7] it was inactive: -0.032. Also, the figures for the log2 fold change in test [5], in [8] and in test [9] were inactive: 0.125, inactive: -0.006 and inactive: 0.051, respectively.

Consider CD151 (UniProt P48509), for which the log2 fold change was inactive: 0.045 in test [1]; inactive: 0.116 in test [2]; inactive: -0.012 in test [3]; inactive: 0.092 in test [4]; inactive: -0.065 in [6]; inactive: -0.097 in [7]. Also, the log2 fold change in test [5] was inactive: 0.03; in [8] it was inactive: 0.031; in test [9], inactive: 0.001.

CDC37 (UniProt K7EL68): the log2 fold change in test [1] was inactive: -0.173; in test [2], inactive: -0.191; in test [10], inactive: -0.253; in test [6] it was inactive: 0.049; in test [7], inactive: -0.057; in test [5], inactive: 0.118. The log2 fold change is inactive: 0.215 in test [8] and inactive: 0.079 in [9].

With CCAR2 isoform 2 (UniProt Q8N163), the log2 fold change in test [1] was inactive: -0.102; in [2], inactive: -0.231; in test [3], inactive: 0.122; in test [4], inactive: -0.083; in [6], active: -0.42; in test [7] it was inactive: -0.106. Moreover, the values for the log2 fold change in [5], in [8] and in test [9] were inactive: 0.031, inactive: -0.011 and inactive: 0, respectively.

Take CD63 (UniProt P08962): the log2 fold change in [1] is inactive: 0.021; in test [2], inactive: 0.017; in [3], inactive: -0.005; in test [4] it was inactive: 0; in test [6], inactive: -0.006; in test [7], inactive: -0.018. Besides, the log2 fold change in test [5] was inactive: -0.01; in test [8], inactive: 0.049; in test [9] it was inactive: 0.015.

Regarding CCDC9 (UniProt Q9Y3X0), the log2 fold change was inactive: 0.023 in test [1]; inactive: 0.077 in test [2]; inactive: -0.046 in test [3]; inactive: -0.038 in [4]; inactive: 0.148 in test [6]; inactive: 0.116 in test [7]. The log2 fold change in [5] is inactive: -0.031; in test [8] it was inactive: -0.021; in [9] it was inactive: 0.004.

For the target CD44 (UniProt P16070), the log2 fold change in test [1] is inactive: 0.036; in test [2] it was inactive: -0.044; in [10] it was inactive: -0.09; in test [3] it was inactive: 0.146; in test [6], inactive: 0.057; in [5], inactive: -0.013. For the same target, the log2 fold change in test [9] was inactive: -0.069.

Take CBR1 (UniProt P16152): the log2 fold change is inactive: 0.02 in test [1]; inactive: -0.005 in test [2]; inactive: -0.059 in test [3]; inactive: 0.011 in test [4]; inactive: -0.041 in [6]; inactive: -0.01 in test [7]. The figures for the log2 fold change in test [5], in test [8] and in test [9] were inactive: -0.003, inactive: -0.024 and inactive: 0.004, respectively.

Take CD9 (UniProt P21926): the log2 fold change is inactive: -0.235 in test [1]; inactive: -0.011 in test [2]; inactive: -0.004 in test [10]; inactive: -0.055 in test [3]; inactive: 0.145 in test [5].

As to CASP2 (UniProt P42575), the log2 fold change in test [1] is inactive: -0.1; in test [2], inactive: -0.048; in test [3], inactive: 0.082; in [4] it was inactive: 0.037; in [6], inactive: -0.08; in [7] it was inactive: -0.006. Further, the log2 fold change was inactive: 0.053 in test [5], inactive: 0.133 in test [8] and inactive: -0.005 in test [9].

On to CAV2 (UniProt P51636), for which the log2 fold change in test [1] was inactive: -0.006; in test [2] it was inactive: 0.045; in test [3], inactive: 0.159; in test [4], inactive: -0.019; in test [5], inactive: 0.013.

As to CCNH (UniProt P51946), the log2 fold change is inactive: 0.094 in test [1]; inactive: -0.019 in [2]; inactive: -0.001 in test [3]; inactive: -0.037 in test [4]; inactive: -0.037 in test [6]; inactive: 0.036 in [7]. Also, the log2 fold change in [5] is inactive: -0.044; in test [8] it was inactive: -0.031; in test [9], inactive: 0.033.

With CCNYL1 (UniProt Q8N7R7), the log2 fold change in test [1] is inactive: 0; in [2], inactive: -0.005; in test [10], inactive: 0.037; in [4], inactive: -0.054; in test [7], inactive: 0.099; in test [5] it was inactive: -0.097. The log2 fold change in test [8] is inactive: 0.138.

Turning to CDC123 (UniProt O75794), the log2 fold change in [1] was inactive: -0.039; in [2] it was inactive: 0.073; in [3], inactive: 0.075; in test [4], inactive: -0.043; in [6] it was inactive: 0.008; in test [7], inactive: -0.017. For the same target, the log2 fold change was inactive: -0.041 in [5], inactive: 0.052 in test [8] and inactive: -0.032 in test [9].
